# Laboratory results taken from PubChem BioAssay AID504467 (National Center for Advancing Translational Sciences (NCATS), 2011).
# In all, about 330,000 compounds went through this assay and about 7,700 (2.3%) were called active. The shares of active, inactive and inconclusive entries below differ from those in the screen. The call rests on the fitted dose curve; in most records, active means well fitted inhibition curve with a large enough effect; inconclusive means small, poorly fitted or top-dose-only effect, or effect the other way; inactive means flat fitted curve, though single readings scatter. Potencies of inconclusive entries are doubtful fits and often do not repeat.
# Assay: qHTS screen for small molecules that inhibit ELG1-dependent DNA repair in human embryonic kidney (HEK293T) cells expressing luciferase-tagged ELG1; further: nearly all actives have a fitted effect of over 55% in size
# Conditions: HEK293T ELG1-luciferase reporter, luminescence, 16 h, DNA damage induced by 5-fluorouridine; series mostly up to 46.1 µM
# How it was run: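 DMSO vehicle served as the neutral condition. Each well held 2,000 cells given 5-fluorouridine plus compound; after 16 hr at 37 °C/5% CO2, ONE-Glo was added and luciferase measured 30 min later.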
# Potency means the concentration at half of the fitted maximal effect.
row,Compound,Potency
1,Cc1cc(C)cc(OCC(=O)OCC(=O)c2cc(C)n(C3CC3)c2C)c1,inactive
2,CCCCN(C)CCNC(=O)c1cc2cc3ccc(OC)cc3nc2o1,"inconclusive: 18.3 µM [activator, single point]"
3,O=C(COC(=O)CCc1nc2ccccc2s1)Nc1ncc(Cl)cc1Cl,"inconclusive: 16.4 µM [activator, partial curve, poor fit]"
4,O=C(c1ccccc1)[C@H]1[C@H](c2ccccc2)[C@@]2(N=C(c3ccccc3)OC2=O)C2c3ccccc3C=NN21 (some centres not stated),"inconclusive: 14.6 µM [activator, partial curve]"
5,CCC1(C)Cc2ccccc2-c2nc(NCCCO)[nH]c(=O)c21 (configuration not stated),"inconclusive: 29.1 µM [activator, single point]"
6,Cc1nc2nc[nH]n2c(=O)c1NC(=O)CCc1ccccc1,inactive
7,Cc1cccc(-c2noc(-c3ccc(F)cc3)n2)c1,"inconclusive: 5.17 µM [activator, partial curve]"
8,CSc1nnc(Cn2c(=O)sc3ccccc32)n1-c1cccc(Cl)c1,inactive
9,CC(=O)N1c2ccc(S(=O)(=O)N3CCC(C(=O)N4CCN(c5ccccc5F)CC4)CC3)cc2CC1C (configuration not stated),active: 20.6 µM
10,CCC(=O)Nc1cccc(-c2cn3ccsc3n2)c1,"inconclusive: 23.1 µM [activator, single point]"
11,O=C(C[C@@H]1C/C=C\C[C@@H](Cc2ccc(F)cc2)C(=O)OC[C@@H](Cc2ccccc2)NC1=O)N[C@H](CO)Cc1ccccc1,inactive
12,O=C(CSc1ccccn1)Nc1ccc2c(c1)CCC2,"inconclusive: 18.3 µM [activator, partial curve]"
13,COC(=O)[C@@H]1C[C@@]2(O)[C@H](O)[C@H](O)[C@H](O)C[C@H]2N1Cc1cc(F)ccc1F,"inconclusive: 29.1 µM [activator, single point]"
14,COc1ccc(C(CC(=O)O)N2Cc3ccccc3C2=O)cc1 (configuration not stated),inactive
15,CCOCCn1c(N2CCN(c3ccccc3)CC2)nc2c1c(=O)n(C)c(=O)n2C,"inconclusive: 14.1 µM [inhibitor, single point]"
16,COc1ccc(N2CCN(C(=O)CSc3nnc4c(C)cc5ccc(C)c(C)c5n34)CC2)cc1,"inconclusive: 29.1 µM [inhibitor, single point]"
17,CN(C1CCCCC1)S(=O)(=O)c1cn(C)c(=O)n(C)c1=O,inactive
18,COc1ccc(NC(=O)CC2SC(N3CCCC3)=NC2=O)cc1Cl (configuration not stated),inactive
19,CC12CC3CC(C)(C1)CC(C(=O)NC(=S)N1CCOCC1)(C3)C2,inactive
20,Cc1ccccc1C(=O)N1CCN(c2ccccn2)CC1,inactive
21,O=C(NC(=O)N1CCSCC1)c1c(Cl)cccc1Cl,"inconclusive: 29.1 µM [inhibitor, single point]"
22,COc1ccc(-c2nn(CCC(=O)O)cc2/C=C/C(=O)O)cc1[N+](=O)[O-],inactive
23,O=S(=O)(Cc1ccccc1)N1CCN(Cc2ccc(Br)cc2)CC1,"inconclusive: 18.3 µM [activator, single point]"
24,COc1ccc(-c2cn(-c3ccccc3)nc2C(=O)O)cc1OC,inactive

row,Compound,Potency
1,Cc1nnc(NC(=O)CSc2nc(C(C)C)nc3ccccc23)s1,"inconclusive: 2.59 µM [inhibitor, partial curve, poor fit]"
2,Cc1onc(-c2ccccc2)c1C(=O)Nc1ccc(C(=O)N2CCCCC2)cc1,"inconclusive: 6.51 µM [inhibitor, full curve, poor fit]"
3,Cc1cc(Cl)ccc1OCC(=O)N(Cc1ccco1)C1CCS(=O)(=O)C1 (configuration not stated),inactive
4,Cn1nc(C(=O)NNC(=O)c2ccc(Cl)c(S(N)(=O)=O)c2)c2ccccc2c1=O,inactive
5,Nc1cccc(/C=C/c2ccncc2)c1,"inconclusive: 20.6 µM [activator, single point]"
6,Cn1c(=O)[nH]c(=O)c2c1nc(CN1CCN(c3cccc(Cl)c3)CC1)n2Cc1ccccc1Cl,inactive
7,CCSc1nc2cc(OC)c(OC)cc2c(=O)n1CCc1ccccc1,"inconclusive: 23.1 µM [inhibitor, partial curve]"
8,Cc1nc(SCc2cccc(Oc3ccccc3)c2)n[nH]1,"inconclusive: 35.5 µM [activator, single point]"
9,COc1ccc(Oc2ncnc3sccc23)cc1,"inconclusive: 14.6 µM [activator, partial curve]"
10,O=C(Nc1ncc([N+](=O)[O-])s1)c1ccc2c(c1)OCO2,"inconclusive: 0.164 µM [activator, full curve]"
11,CCn1c(/C=C/Nc2ccccc2)[n+](CC)c2cc(Cl)c(Cl)cc21,"inconclusive: 3.26 µM [inhibitor, partial curve, poor fit]"
12,COc1ccc(NC(=O)c2cc(-c3ccco3)on2)cc1,"inconclusive: 20.6 µM [activator, partial curve]"
13,Cc1ccc(-c2cc(=O)c3ccc(F)cc3[nH]2)cc1,"inconclusive: 14.6 µM [activator, partial curve, poor fit]"
14,O=C(Nc1ccc(-n2nncc2-c2ccco2)cc1)c1cc2ccccc2oc1=O,"inconclusive: 23.1 µM [activator, single point]"
15,COc1ccc(C2=NNC(=Nc3cc(S(=O)(=O)N(C)C)ccc3C)SC2)c(OC)c1,active: 14.6 µM
16,O=C1CC(N2CCCCC2)C(=O)N1c1ccccc1 (configuration not stated),inactive
17,Cc1cccc(/C=N/n2c(-c3ccccn3)n[nH]c2=S)c1,"inconclusive: 29.1 µM [activator, single point]"
18,COc1ccc(C(=O)Nc2sc3c(c2C(=O)NCc2ccco2)CCCC3)cc1OC,active: 16.4 µM
19,Cc1cccc(NC(=O)c2ccc(S(=O)(=O)C(F)F)cc2)c1C,"inconclusive: 18.4 µM [activator, single point]"
20,CN(C)c1oc(-c2ccccc2)nc1C#N,inactive
21,COc1ccc(CNC(=O)CCSCc2ccccc2C)cc1,inactive
22,Cc1scc(C(=O)N2CCN(S(C)(=O)=O)CC2)c1-c1ccccc1,inactive
23,CN1CCN(C(=O)Nc2ccc3c(c2)N(C)C(=O)c2ccccc2S3)CC1,"inconclusive: 0.82 µM [activator, single point]"
24,O=C(CN(Cc1cccs1)C(=O)CNS(=O)(=O)c1ccccc1)NCc1ccco1,"inconclusive: 20.6 µM [activator, partial curve, poor fit]"

# Quoted at random: 3 entries already listed, in no set order.
row,Compound,Potency
19,Cc1cccc(NC(=O)c2ccc(S(=O)(=O)C(F)F)cc2)c1C,"inconclusive: 18.4 µM [activator, single point]"
9,COc1ccc(Oc2ncnc3sccc23)cc1,"inconclusive: 14.6 µM [activator, partial curve]"
5,Nc1cccc(/C=C/c2ccncc2)c1,"inconclusive: 20.6 µM [activator, single point]"

# (more compounds)

row,Compound,Potency
1,CCOc1cccc(/C=N/Nc2nc(N3CCCC3)nc(N3CCCC3)n2)c1O,"inconclusive: 20.6 µM [inhibitor, partial curve, poor fit]"
2,CCC(C(=O)NC1CCCC1)N(Cc1ccco1)C(=O)Cn1nnc(-c2ccc(C)cc2)n1 (configuration not stated),"inconclusive: 6.51 µM [inhibitor, single point]"
3,C#CCn1c(=NC(=O)c2ccc(Cl)s2)sc2cccc(OC)c21,"inconclusive: 6.51 µM [activator, full curve, poor fit]"
4,Cc1ccccc1OCC(=O)OCC(=O)c1ccc(OCc2ccccc2)cc1,"inconclusive: 8.2 µM [activator, partial curve]"
5,CC(=O)c1c(C)[nH]c(C(=O)Nc2ccc(S(=O)(=O)N(C)C)cc2)c1C,"inconclusive: 18.3 µM [activator, partial curve]"
6,Cc1cccc(NC(=O)c2ccc(S(=O)(=O)N(C)C)cc2)n1,inactive
7,Cc1nc2ccccc2c2oc(C(=O)N3CCCC(C)C3)cc12 (configuration not stated),inactive
8,CC1=CC(=C(C#N)c2nc3ccccc3s2)C=C(C)N1c1ccc(F)cc1F,"inconclusive: 6.51 µM [activator, single point]"
9,O=C(c1ccccc1NS(=O)(=O)c1cccc2cccnc12)N1CCOCC1,inactive
10,O=C(NC(C(=O)N/N=C/c1c2ccccc2cc2ccccc12)c1n[nH]c(=O)c2ccccc12)c1ccccc1 (configuration not stated),inactive
11,O=C(CCC(=O)OCC(=O)c1cccc([N+](=O)[O-])c1)NC1CCCCC1,inactive
12,Cc1cccc(N=C2NC(=O)/C(=C\c3cccs3)S2)c1,"inconclusive: 9.2 µM [activator, partial curve]"
13,Cc1ccccc1Cn1nc(C)c(NC(=O)C2(C)CC2(Cl)Cl)c1C (configuration not stated),inactive
14,Cc1ccc(CNC(=O)C2(S(=O)(=O)c3ccccc3)CC=CC2)cc1,"inconclusive: 14.6 µM [activator, partial curve]"
15,COc1ccc(C(=O)Cn2c(N3CCOCC3)nc3c2c(=O)n(C)c(=O)n3C)cc1,inactive
16,O=C(Nc1cnn(Cc2ccc(Cl)cc2)c1)c1ccc([N+](=O)[O-])cc1,active: 20.6 µM
17,O=C(Cn1cnc2c(OCc3ccccc3)ncnc21)NCCCN1CCCC1=O,"inconclusive: 20.6 µM [activator, partial curve, poor fit]"
18,COc1ccc(Nc2nc3ccccc3s2)cc1,"inconclusive: 4.11 µM [activator, full curve]"
19,C=CCNC(=S)Nc1sc2c(c1C(=O)OCC)CC(C)(CC)OC2 (configuration not stated),inactive
20,CN1CCc2nc(NC(=O)c3cccc(OC(F)F)c3)sc2C1,"inconclusive: 18.4 µM [activator, single point]"
21,CCOc1ccc(C2C(C(=O)c3ccc(C)o3)=C(O)C(=O)N2c2nc(C)c(C(=O)OC)s2)cc1 (configuration not stated),"inconclusive: 4.61 µM [activator, full curve]"
22,Cc1ccc(C(=O)NCC(c2ccco2)N2CCc3ccccc32)cc1 (configuration not stated),inactive
23,CC(NC(=O)C(=O)N/N=C/c1ccccc1)c1ccccc1 (configuration not stated),inactive
24,CC(C)CC(COCc1cccc(C(F)(F)F)c1)N1CCN(C(=O)c2cccc(C(F)(F)F)c2)CCC1=O (configuration not stated),"inconclusive: 23.1 µM [inhibitor, single point]"
